# Values of other authors, collected in patent US20220133687A1, “METHODS OF TREATING AND PREVENTING NEURODEGENERATIVE DISEASES WITH HGF ACTIVATING COMPOUNDS” (Synaptogenix, Inc., priority 2020, published 2022).
# For at least one compound, name, drawing or mass did not settle the structure.
# System: PKC in K562 cells
# Conditions: cited from earlier work
structure (smiles),measurement,value
C=C(C)[C@@]12C[C@@H](COC(=O)c3ccccc3)[C@@]34OC5(O[C@@H]1[C@@H]3[C@@H]1O[C@]1(CO)[C@@H](O)[C@@]1(O)[C@H]4[C@H]([C@H](C)[C@@H]1OC(=O)c1ccccc1)[C@H](C)CCCCCC[C@H]5O)O2 [Gnidimacrin],concentration acting as HGF or PKC activator,0.3 nM
